Measurements reported in publication PMC5836524.
Where a chain is given by its changes, count along the chain named. These are yes or no findings as the source states them, for the method shown. In cells and extracts the contact can be indirect. Some binding calls cover weakened binding; strength is not graded here. Sequences can lack the tags named with a protein.

Chains of the proteins cited; added tags and fusions are not shown.
UniProt Q00610: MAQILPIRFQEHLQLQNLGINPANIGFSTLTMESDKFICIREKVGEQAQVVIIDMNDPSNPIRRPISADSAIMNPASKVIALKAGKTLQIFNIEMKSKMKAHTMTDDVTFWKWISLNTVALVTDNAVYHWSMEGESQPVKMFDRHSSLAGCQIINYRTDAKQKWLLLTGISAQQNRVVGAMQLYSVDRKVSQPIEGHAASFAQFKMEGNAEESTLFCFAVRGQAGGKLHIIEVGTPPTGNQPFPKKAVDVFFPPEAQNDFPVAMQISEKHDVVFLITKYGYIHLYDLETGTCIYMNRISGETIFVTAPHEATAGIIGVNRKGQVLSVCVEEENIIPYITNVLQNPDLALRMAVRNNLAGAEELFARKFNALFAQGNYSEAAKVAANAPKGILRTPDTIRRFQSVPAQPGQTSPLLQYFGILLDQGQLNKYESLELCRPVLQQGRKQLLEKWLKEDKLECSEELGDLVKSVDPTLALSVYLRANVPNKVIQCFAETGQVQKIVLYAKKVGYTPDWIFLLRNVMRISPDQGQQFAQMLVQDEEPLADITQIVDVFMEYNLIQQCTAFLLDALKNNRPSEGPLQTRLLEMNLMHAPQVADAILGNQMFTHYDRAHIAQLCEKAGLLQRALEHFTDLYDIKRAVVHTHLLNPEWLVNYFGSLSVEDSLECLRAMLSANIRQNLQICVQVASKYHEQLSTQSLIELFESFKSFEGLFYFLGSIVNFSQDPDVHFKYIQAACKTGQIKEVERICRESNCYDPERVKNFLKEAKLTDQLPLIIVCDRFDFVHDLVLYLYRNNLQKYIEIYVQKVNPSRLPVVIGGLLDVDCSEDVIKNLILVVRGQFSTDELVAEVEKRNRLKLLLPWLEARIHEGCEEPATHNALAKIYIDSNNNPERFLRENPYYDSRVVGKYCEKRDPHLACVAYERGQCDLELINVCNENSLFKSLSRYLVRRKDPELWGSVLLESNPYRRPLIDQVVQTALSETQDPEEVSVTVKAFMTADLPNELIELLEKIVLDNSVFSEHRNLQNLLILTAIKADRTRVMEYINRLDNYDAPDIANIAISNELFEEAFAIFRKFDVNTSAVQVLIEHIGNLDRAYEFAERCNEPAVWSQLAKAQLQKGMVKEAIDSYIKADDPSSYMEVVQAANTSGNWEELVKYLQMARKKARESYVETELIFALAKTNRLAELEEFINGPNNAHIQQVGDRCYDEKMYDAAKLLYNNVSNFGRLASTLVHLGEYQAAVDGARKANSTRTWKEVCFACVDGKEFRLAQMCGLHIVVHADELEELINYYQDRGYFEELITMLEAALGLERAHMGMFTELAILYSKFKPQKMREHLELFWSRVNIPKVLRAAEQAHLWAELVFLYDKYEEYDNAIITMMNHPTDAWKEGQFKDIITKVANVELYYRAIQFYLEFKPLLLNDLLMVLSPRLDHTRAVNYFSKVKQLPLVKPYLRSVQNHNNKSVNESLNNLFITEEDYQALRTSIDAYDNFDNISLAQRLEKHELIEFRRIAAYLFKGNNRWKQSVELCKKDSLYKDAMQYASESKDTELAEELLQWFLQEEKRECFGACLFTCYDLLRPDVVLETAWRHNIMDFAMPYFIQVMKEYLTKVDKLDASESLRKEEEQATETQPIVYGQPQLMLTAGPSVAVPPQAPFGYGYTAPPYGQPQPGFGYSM

Assays:
Assay in all cases: pull-down; GST-tagged Eps15R or Eps15 motif domain constructs on beads incubated with detergent extracts from HeLa cells (100-200 μg lysate, 30-60 min, 4°C); immunoblot for clathrin and AP2 β-adaptin; only the target purified
[1] = biological target: T1, GST-Eps15 aa 687-723 (human) (UniProt P42566)
T1 sequence: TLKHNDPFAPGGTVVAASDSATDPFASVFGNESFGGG

[2] = biological target: T2, GST-Eps15R aa 699-709 (mouse) (UniProt Q60902)
T2 sequence: KLDPFESSDPF

[3] = biological target: T3, GST-Eps15R aa 699-729 (mouse) (UniProt Q60902)
T3 sequence: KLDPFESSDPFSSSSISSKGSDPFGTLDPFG

[4] = biological target: T4, GST-Eps15R aa 699-729 F703A (mouse) (UniProt Q60902)
T4 sequence: T3 sequence with F5A

[5] = biological target: T5, GST-Eps15R aa 699-729 F728A (mouse) (UniProt Q60902)
T5 sequence: T3 sequence with F30A

[6] = biological target: T6, GST-Eps15R aa 701-747 (mouse) (UniProt Q60902)
T6 sequence: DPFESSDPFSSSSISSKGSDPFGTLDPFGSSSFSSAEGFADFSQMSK

[7] = biological target: T7, GST-Eps15R aa 701-747 F709A (mouse) (UniProt Q60902)
T7 sequence: T6 sequence with F9A

[8] = biological target: T8, GST-Eps15R aa 717-729 (mouse) (UniProt Q60902)
T8 sequence: KGSDPFGTLDPFG

clathrin (endogenous, detected by blot for clathrin heavy chain) (from UniProt Q00610 1-1675)
binding [1]: no binding | binding [2]: no binding | binding [3]: binds | binding [4]: binds | binding [5]: binds | binding [6]: binds | binding [7]: binds | binding [8]: binds
